In publication PMC12048902:
No constants are given. Whether binding was seen depends on the method and setting. In cells and extracts the contact can be indirect. Some binding calls cover weakened binding; strength is not graded here.

Protein sequences, listed by entry. Tags and fused reporters are not part of them.
UniProt Q14449: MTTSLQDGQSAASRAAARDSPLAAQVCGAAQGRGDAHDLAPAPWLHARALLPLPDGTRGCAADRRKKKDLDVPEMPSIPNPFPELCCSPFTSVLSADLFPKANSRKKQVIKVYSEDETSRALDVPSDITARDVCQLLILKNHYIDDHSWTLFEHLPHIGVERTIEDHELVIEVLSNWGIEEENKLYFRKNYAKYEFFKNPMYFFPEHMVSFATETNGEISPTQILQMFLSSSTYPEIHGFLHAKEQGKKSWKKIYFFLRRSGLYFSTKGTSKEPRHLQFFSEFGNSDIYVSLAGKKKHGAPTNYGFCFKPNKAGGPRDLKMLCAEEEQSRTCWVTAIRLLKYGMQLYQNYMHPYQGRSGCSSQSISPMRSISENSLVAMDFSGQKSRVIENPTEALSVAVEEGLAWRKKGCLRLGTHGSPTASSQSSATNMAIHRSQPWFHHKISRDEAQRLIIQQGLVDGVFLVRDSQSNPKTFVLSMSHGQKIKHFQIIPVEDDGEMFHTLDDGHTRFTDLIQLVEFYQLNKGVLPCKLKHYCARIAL
UniProt Q53SF7: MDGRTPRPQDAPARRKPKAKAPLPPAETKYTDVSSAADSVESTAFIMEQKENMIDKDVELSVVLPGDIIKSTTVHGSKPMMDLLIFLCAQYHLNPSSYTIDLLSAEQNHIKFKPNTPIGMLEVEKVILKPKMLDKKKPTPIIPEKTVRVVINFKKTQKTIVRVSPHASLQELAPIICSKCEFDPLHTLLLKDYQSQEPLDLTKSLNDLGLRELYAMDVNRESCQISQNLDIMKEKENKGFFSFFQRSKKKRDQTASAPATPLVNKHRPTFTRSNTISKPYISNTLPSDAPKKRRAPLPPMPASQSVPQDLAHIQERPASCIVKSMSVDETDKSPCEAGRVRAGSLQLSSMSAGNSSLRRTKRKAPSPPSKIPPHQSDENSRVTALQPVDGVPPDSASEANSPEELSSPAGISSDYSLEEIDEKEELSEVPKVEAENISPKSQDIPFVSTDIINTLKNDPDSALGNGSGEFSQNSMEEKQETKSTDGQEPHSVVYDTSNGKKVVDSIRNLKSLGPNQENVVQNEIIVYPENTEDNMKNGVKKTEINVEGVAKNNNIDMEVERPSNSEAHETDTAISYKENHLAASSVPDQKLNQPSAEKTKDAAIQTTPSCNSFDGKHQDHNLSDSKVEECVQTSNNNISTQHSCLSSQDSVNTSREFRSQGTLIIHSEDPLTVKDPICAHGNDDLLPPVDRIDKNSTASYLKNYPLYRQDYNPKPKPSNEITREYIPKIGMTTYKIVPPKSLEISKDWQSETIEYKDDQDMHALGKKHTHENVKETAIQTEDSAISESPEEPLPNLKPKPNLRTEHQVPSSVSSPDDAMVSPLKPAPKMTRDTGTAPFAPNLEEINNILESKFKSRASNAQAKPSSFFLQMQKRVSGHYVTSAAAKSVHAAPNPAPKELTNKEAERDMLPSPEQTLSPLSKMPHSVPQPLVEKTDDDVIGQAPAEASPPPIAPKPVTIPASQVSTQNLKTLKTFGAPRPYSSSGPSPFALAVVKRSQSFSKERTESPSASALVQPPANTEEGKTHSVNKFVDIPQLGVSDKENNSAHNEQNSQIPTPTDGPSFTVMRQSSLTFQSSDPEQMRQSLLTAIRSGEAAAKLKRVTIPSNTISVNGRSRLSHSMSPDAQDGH

Key:
[1] = molecular target: Growth factor receptor-bound protein 14 (GRB14), endogenous in BGC-823 cells (human (endogenous in BGC-823)) (UniProt Q14449); assay: co-IP; endogenous Co-IP in BGC-823 cells; bait and antibodies not told
[2] = molecular target: Growth factor receptor-bound protein 14 (GRB14), exogenously expressed (human) (UniProt Q14449); assay: co-IP; exogenous Co-IP; GRB14 and COBLL1 exogenously expressed in HEK293T cells transfected with the specified constructs; bait and antibodies not told

Row | binding [1] | binding [2] | Substance
1 | binds |  | Cordon-bleu WH2 repeat protein like 1 (COBLL1), endogenous in BGC-823 cells (from UniProt Q53SF7 1-1128)
2 |  | binds | Cordon-bleu WH2 repeat protein like 1 (COBLL1), exogenously expressed (from UniProt Q53SF7 1-1128)
